From paper PMC6307784
Construct, isoform or probe ends are uncertain for at least one entry. Where a protein sequence is shown, tags need not be part of it.

Target: T1, NhaR-His6 (Escherichia coli) (UniProt P0A9G2)
T1 sequence (looked up, limits assumed): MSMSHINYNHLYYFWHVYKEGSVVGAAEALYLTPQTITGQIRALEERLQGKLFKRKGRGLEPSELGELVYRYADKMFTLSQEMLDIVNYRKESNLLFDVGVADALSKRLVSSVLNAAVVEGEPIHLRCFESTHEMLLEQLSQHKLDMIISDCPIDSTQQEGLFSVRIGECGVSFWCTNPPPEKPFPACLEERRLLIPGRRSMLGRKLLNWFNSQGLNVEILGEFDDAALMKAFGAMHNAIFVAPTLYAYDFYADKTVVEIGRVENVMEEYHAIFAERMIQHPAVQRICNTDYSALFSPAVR
Assay: EMSA
Details: shifted at 125 and 250 nM NhaR, bigger shifts at higher concentrations; LightShift Chemiluminescent EMSA Kit (Pierce) as per manufacturer, 5% PAGE; pH and temperature not stated; recombinant protein; protein details: His6; probe letters rebuilt from the primers and the genome

AAAGGTACCGAGCGTGATATCGGCAGTGCTATAAAATACGTTAATATAATGACCAATAAATATTTTTATCATGAATGTTTTTTGCCCGTATTGTTCGGGTTAATTAATGTTACATATTCAGCGGGCTGATTTTCATTTTTGCTGAATAAAGTCAATTTTTGTCACATTTCATCGTAGGGCTTACTGTGAAACGATCCGGTAAGCCGTTGGTGACGGGCGTGACCATAACTGTGGACAATCGAATTGACAAAAACGAGAGAAAAATCGAATACCCACCATTTTTAACGTTTCAAAGTTGCAATAAAAACCGCTAATATACGAATGACTAACTATCAGTAGCGTTATCCCTATTTCTGGAGATATTCCTTTGATCAACGTTCTACTTGTTGATGACCAC (double strand) [uvrY promoter 388 bp (-358 to +30)]
binding result: binds
